According to patent publication US7993627B2, “Methods for determining whether a compound alters the amount of at least one αβ (X-41) peptide and the amount of either total αβ or at least one αβ (X-40) peptide produced by a non-human mammal” (Elan Pharmaceuticals, Inc., priority 1996, dated 2011):
“Also recorded” adds a separate entry of the source. For at least one compound, name, drawing or mass did not settle the structure. Where a SMILES comes first, the peptide text is derived from it. The star is where a group is joined. Cbz = O=C(OCc1ccccc1)*

Legend:
[1] = system: γ-secretase; settings: Higaki et al. (1995); cited from earlier work
[2] = system: SKN695 cells; assay: Pulse-chase labeling and immunoprecipitation with 21F12 then 1282; format: cell-based, human; settings: 200 μM, 2 h pulse-2 h chase
[3] = system: CHO695 cells; assay: as above; format: cell-based, Chinese hamster; settings: 200 μM, 2 h pulse-2 h chase
[4] = system: K695sw cells; assay: Pulse-chase labeling and immunoprecipitation of chase media and cell lysates (APP processing); format: cell-based, human
Protocol: We first set out to reproduce the published results of Higaki et al. (1995) Neuron, 14:651-659 on the action of the compound MDL 28170 on APP processing, using human kidney 293 cells stably expressing APP695 with the Swedish FAD mutation (K695sw cells). Our experiments were done using a pulse-chase paradigm: K695sw cells were labeled for 2 hours with 35S-methionine and then chased for 2 hours in the presence of 200 μM MDL 28170. Aliquots of the chase media from treated and untreated cells were subjected to SDS-PAGE.
To address this question, we performed pulse-chase experiments on K695sw cells using different doses of MDL 28170, followed by sequential immunoprecipitation of the same media first with 21F12, a monoclonal antibody raised against amino acids 33-42 of Aβ (described above) which specifically precipitates Aβ peptides ending at position 42, and then with antibody 1282 which precipitates all forms of Aβ and p3 (Haass et al., (1992b) Nature 359:322-325) (FIG. 4A). […] Using MDL 28170 at 200 μM, the experiment was repeated four times and the results were quantitated by phosphorimaging (FIG. 4B).
All transfected cell lines described here carry derivatives of pCMV695, a plasmid carrying APP695 under control of the CMV promoter (Selkoe, (1988) Proc. Natl. Acad. Sci. 85:7341-7345) K695sw are human embryonic kidney 293 cells stably transfected with a construct carrying the AD-linked double (“Swedish”) mutation K595N/M596L (Citron et al. (1992) Nature, 360:672-674); K695717I are 293 cells stably transfected with APP695 carrying the mutation V717I (valine to isoleucine at position 717 in the APP770 numbering system). CHO695 are Chinese hamster ovary cells (CHO) stably transfected with pCMV695 (Oltersdorf (1990) J. Biol. Chem. 265:4432-4437) SKN695 are SK-N-SH human neuroblastoma cells stably transfected with pCMV695.
To analyze the effect of MDL 28170 on the processing of APP, cells were grown to confluence in two 10 cm dishes, pulse-labeled with 600 μCi of [^35S]-methionine in 4 ml of serum-free medium for 2 hours and then chased for 2 hours with 4 ml medium containing 10% fetal bovine serum and the indicated final concentration of MDL 28170 (initially dissolved at 200 mM. in DMSO). Control dishes were treated with DMSO alone.
Conditioned media and cell lysates were analyzed by immunoprecipitation, as described (Haass, et al. (1992) Nature 359:322-325). Polyclonal antibody R1736 to residues 595-611 of APP695 was used to precipitate α-APPs (Haass, (1994) J. Biol. Chem. 269:17741-17748). This antibody recognizes an epitope that is specific for the free COOH-terminus of α-cleaved APPs. Polyclonal antibody R1282 was generated to synthetic Aβ1-40 (Haass, et al. (1992) Nature 359:322-325). This antibody precipitates total Aβ and p3 (and small, variable amounts of APPs) from the media of cultured cells (Haass, et al. (1992) Nature 359:322-325). The monoclonal antibody 2G3 was raised to peptide C(Aminoheptanoic acid)GLMVGGVV [(SEQ ID NO: 5) and specifically precipitates Aβ(40) and p3(40). Twenty μg of this antibody were used to immunoprecipitate the chase media of 2 dishes. The monoclonal antibody 21F12 was raised to peptide C(Aminoheptanoic acid)GLMVGGVVIA (SEQ ID NO: 4) and specifically precipitates Aβ(42) and p3(42). Twenty μg of this antibody were used to immunoprecipitate the chase media of 2 dishes. The monoclonal antibody BC05 specifically detects Aβ(42) and p3(42) (Suzuki et al., (1994) Science 264:1336-1340). The polyclonal antibody C7 against the last 20 residues of the APP cytoplasmic tail (Podlisny, (1991) Am. J. Pathol. 138:1423-1435) precipitates N′- and N⇑ plus O⇑-glycosylated full-length APP as well as its C-terminal proteolytic fragments. The antibody sw192 (Knops et al. (1995) J. Biol. Chem. 270:2419-2422; Haass et al. (1995) Nature Med.1:1291-1296) specifically precipitates β-cleaved APPs carrying the Swedish mutation. […]

[5] = system: K695717I cells; assay: Pulse-chase labeling and immunoprecipitation with 21F12 then 1282; format: cell-based, human; settings: 200 μM, 2 h pulse-2 h chase
[6] = 200 μM, 2G3 first, followed by 21F12
[7] = 200 μM, two-tailed t-test, n=4, p<0.001
[8] = doses >50 μM, at 200 μM p<0.001

In the case of `CC(C)[C@H](NC(=O)OCc1ccccc1)C(=O)N[C@H](C=O)Cc1ccccc1` [MDL 28170] (Cbz-Val-Phe-aldehyde), the “12 kDa and 10 kDa APP precursor fragments in treated cells” value [1] is given as “accumulation”, the “production of total Aβ” value [1] is given as “inhibits” and the “production of total p3” value [1] is given as “inhibits”. The “Aβ(42)” value [2] was “slightly increased”, the “p3(42)” value [2] was “slightly increased” and the “total Aβ” value [2] was “strongly decreased; also recorded: decreased”. The “total p3” value [2] was “strongly decreased; also recorded: decreased”, the “Aβ(40)” value [3] was “substantially reduced” and the “Aβ(42)” value [3] was “only a slight decrease”. For the same compound, the “p3(40)” value [3] was “substantially reduced”, the “p3(42)” value [3] was “only a slight decrease” and the “differential inhibition, 21F12 followed by 1282” value ([4]; 100 μM applied during a 3 h labeling period) was “differential inhibition”. The “Aβ(42) (antibody 21F12)” value ([4]; 200 μM) was “small and insignificant decrease”, the “Aβ(42) (antibody BC05)” value ([4]; 200 μM) was “actual increase” and the “Aβ(42) (polyclonal antibody C42)” value ([4]; 200 μM) was “did not show a decrease”. The “p3(42) (antibody 21F12)” value ([4]; 200 μM) was “small and insignificant decrease”, the “p3(42) (antibody BC05)” value ([4]; 200 μM) was “actual increase” and the “p3(42) (polyclonal antibody C42)” value ([4]; 200 μM) was “did not show a decrease”. The “total Aβ (R1282, subsequent to BC05)” value ([4]; 200 μM) was “usual decrease”, the “total Aβ (R1282, subsequent to C42)” value ([4]; 200 μM) was “usual decrease” and the “total p3 (R1282, subsequent to BC05)” value ([4]; 200 μM) was “usual decrease”. For the same compound, the “total p3 (R1282, subsequent to C42)” value ([4]; 200 μM) was “usual decrease”, the “level of the 10 kDa C-terminal fragment (antibody C7, cell lysates)” value ([4]; 200 μM during 2 h chase) was “striking increase” and the “α-APPs production (antibody 1736 immunoprecipitation of chase media)” value ([4]; 200 μM during 2 h chase) was “increase”. The “amounts of the major secreted cellular proteins in chase media (SDS-PAGE)” value ([4]; 200 μM during 2 h chase, treated vs untreated) was “No significant differences”, the “12 kDa C-terminal fragment (antibody 1282, cell lysates)” value ([4]; 200 μM during 2 h chase, not detectable in untreated cells) was “clearly observed” and the “Aβ(40) (antibody 2G3)” value [4, 6] was “decrease”. For the same compound, the “p3(40) (antibody 2G3)” value [4, 6] was “decrease”, the “decrease in Aβ(42) relative to untreated control (phosphorimaging)” value ([4]; 200 μM, n=4) was “did not reach significance” and the “decrease in p3(42) relative to untreated control (phosphorimaging)” value ([4]; 200 μM, n=4) was “did not reach significance”. For the same compound, the “differential inhibition of Aβ production, precipitations in parallel (21F12 / 1282 on aliquots)” value ([4]; 200 μM, standard pulse-chase) was “also detected”, the “decrease in Aβtotal relative to untreated control (phosphorimaging)” value [4, 7] was “significant” and the “decrease in p3total relative to untreated control (phosphorimaging)” value [4, 7] was “significant”. The “difference in reduction of Aβ(42) level vs. total Aβ level” value ([4]; 200 μM, two-tailed t-test, n=4, p<0.01) was “significant”, the “difference in inhibition of p3(42) vs. total p3” value ([4]; 200 μM, two-tailed t-test, n=4, p<0.05) was “significant” and the “Aβ(42) dose response (antibody 21F12)” value ([4]; different doses up to 200 μM) was “bell-shaped dose response curve”. The “p3(42) dose response (antibody 21F12)” value ([4]; different doses up to 200 μM) was “bell-shaped dose response curve”, the “Total Aβ (antibody 1282)” value [4, 8] was “strongly and significantly decreased” and the “total p3 (antibody 1282)” value [4, 8] was “strongly and significantly decreased”. For the same compound, the “Aβ(40)” value [5] was “substantially reduced”, the “Aβ(42)” value [5] was “no decrease” and the “p3(40)” value [5] was “substantially reduced”. The “p3(42)” value [5] was “no decrease”.
